Data from the supplement of paper PMC3682954.
Counter-ions that a name gives are not always drawn. ± gives the standard deviation of the averaged measurements. The list shows a part of the results. Single values are uncertain, as repeats are few or missing.

Tested on: RAW 264.7
Assay: cell viability (MTT) relative to vehicle control; higher = more viable cells
Settings: stimulus: HMGB1 5 ug/ml, 18 h
[1] = compound concentration: 1 ug/ml

Row | SMILES | cell viability (compound concentration: 3 uM) [%] | cell viability [1] [%]
1 | Oc1noc2c1CCNC2 | 110 | 
2 | CCN[C@@H](C)Cc1cccc(C(F)(F)F)c1 [Dexfenfluramine hydrochloride] | 111 | 
3 | CCCC(C)C1(CC)C(=O)NC(=S)NC1=O (centres undefined) | 108 | 
4 | COc1cc([C@@H]2c3cc4c(cc3[C@H](O)[C@H]3COC(=O)[C@@H]23)OCO4)cc(OC)c1OC | 93.8 | 
5 | C[C@]12CCC(=O)C[C@@H]1CC[C@@H]1[C@@H]2CC[C@@]2(C)[C@H]1CC[C@]2(C)O [Mestanolone] | 97 | 
6 | NC(=O)CN1CC(O)CC1=O (centres undefined) [Oxiracetam] | 104 | 
7 | C[N+](C)(C)CC#CCN1CCCC1=O [Oxotremorine methiodide] | 109 | 
8 | NC(=O)c1ccc(OCC(O)CN2CC=C(c3ccc(F)cc3)CC2)cc1 (centres undefined) | 128 | 
9 | CC(C)=CC1C(C(=O)OCc2cccc(Oc3ccccc3)c2)C1(C)C (centres undefined) | 102 | 
10 | Cc1ncc2n1-c1ccc(Cl)cc1C(c1ccccc1F)=NC2 | 90.5 | 
11 | COc1ccc(CNC(=O)/C=C/c2ccc3[nH]cc(CCN(C)C)c3c2)cc1 | 101 | 
12 | C[CH2][Hg][S]c1ccccc1C(=O)[O-].[Na+] | 3.23 ± 0.81 | 
13 | C[CH2][Hg][S]c1ccccc1C(=O)[O-].[Na+] [Thimerosal] | 31.5 | 
14 | NC(CCP(=O)(O)O)C(=O)O (racemic) [(±)-2-Amino-4-phosphonobutyric acid] | 105 | 
15 | C#C[C@]1(O)CC[C@H]2[C@@H]3CCC4=Cc5nc6nc7ccccc7n6cc5C[C@]4(C)[C@H]3CC[C@@]21C | 111 | 
16 | NCCc1cc(O)c(O)cc1O | 114 | 
17 | CCC(=O)O[C@@](Cc1ccccc1)(c1ccccc1)[C@@H](C)CN(C)C [Levopropoxyphene napsylate] | 98.7 | 
18 | CC(C)=CCC[C@]1(C)C=Cc2c(O)c3c(c(CC=C(C)C)c2O1)O[C@]12C(=C[C@@H]4C[C@H]1C(C)(C)O[C@@]2(C/C=C(/C)C(=O)O)C4=O)C3=O | 1.72 | 
19 | C=CCN(C1=NCCN1)c1c(Cl)cccc1Cl [Alinidine] | 109 | 
20 | O=C1C[C@@H]2OCC=C3CN4CC[C@]56c7ccccc7N1[C@H]5[C@H]2[C@H]3C[C@H]46 [Strychnine] | 113 | 100
21 | O=C1C[C@@H]2OCC=C3CN4CC[C@]56c7ccccc7N1[C@H]5[C@H]2[C@H]3C[C@H]46 | 101 ± 5.4 | 
22 | N#Cc1nn(-c2c(Cl)cc(C(F)(F)F)cc2Cl)c(N)c1[S+]([O-])C(F)(F)F (centres undefined) | 107 ± 4.5 | 
23 | CC[C@@]1(O)C(=O)OCc2c1cc1n(c2=O)Cc2cc3ccccc3nc2-1 [Camptothecin] | 22.5 | 26
24 | CC[C@@]1(O)C(=O)OCc2c1cc1n(c2=O)Cc2cc3ccccc3nc2-1 [Camptothecine (S,+)] | 41.5 | 
25 | CC[C@@]1(O)C(=O)OCc2c1cc1n(c2=O)Cc2cc3ccccc3nc2-1 | 4.97 | 
26 | CC[C@@]1(O)C(=O)OCc2c1cc1n(c2=O)Cc2cc3ccccc3nc2-1 [(S)-(+)-Camptothecin] | 38.5 | 

Row | SMILES | cell viability (compound concentration: 3 uM) [%] | cell viability [1] [%]
27 | COc1cccc(C2(O)CCCCC2CN(C)C)c1 (centres undefined) [Tramadol] | 104 ± 2.6 | 
28 | COc1cccc(C2(O)CCCCC2CN(C)C)c1 (centres undefined) [Tramadol hydrochloride] | 113 | 
29 | COc1cccc(C2(O)CCCCC2CN(C)C)c1 (centres undefined) | 112 | 
30 | CC(CCc1ccccc1)NC(C)C(O)c1ccc(O)cc1 (centres undefined) [Nylidrin hydrochloride] | 99.2 | 
31 | CC(CCc1ccccc1)NC(C)C(O)c1ccc(O)cc1 (centres undefined) [Nylidrin] | 88.2 | 
32 | CC(CCc1ccccc1)NC(C)C(O)c1ccc(O)cc1 (centres undefined) | 103 | 
33 | CC(=O)OC1CN2CCC1CC2 (centres undefined) | 108 | 
34 | Cc1c(C(=O)c2cccc3ccccc23)c2cccc3c2n1[C@H](CN1CCOCC1)CO3 [( R)-(+)-WIN 55,212-2 mesylate] | 117 | 
35 | N=C(N)c1ccc(CS(=O)(=O)F)cc1 [4-Amidinophenylmethanesulfonyl fluoride hydrochloride] | 99 | 
36 | C[N+](C)(C)CCCCCCCCCC[N+](C)(C)C | 105 | 
37 | C[N+](C)(C)CCCCCCCCCC[N+](C)(C)C [Decamethonium dibromide] | 107 | 
38 | C[N+](C)(C)CCCCCCCCCC[N+](C)(C)C [Decamethonium] | 114 | 
39 | C[N+](C)(C)CCCCCCCCCC[N+](C)(C)C [Decamethonium bromide] | 102 | 
40 | c1ccc2nc(N3CCNCC3)ccc2c1 [Quipazine dimaleate salt] | 106 | 
41 | c1ccc2nc(N3CCNCC3)ccc2c1 | 97.6 | 
42 | CC1C2Cc3ccc(O)cc3C1(C)CCN2CC1CC1 (single isomer, unassigned; (+)) [(+)-Cyclazocine] | 108 | 
43 | CN1C[C@H](C(=O)N[C@]2(C)O[C@@]3(O)[C@@H]4CCCN4C(=O)[C@H](Cc4ccccc4)N3C2=O)C[C@@H]2c3cccc4[nH]cc(c34)C[C@H]21 | 98 | 
44 | CN1C[C@H](C(=O)N[C@]2(C)O[C@@]3(O)[C@@H]4CCCN4C(=O)[C@H](Cc4ccccc4)N3C2=O)C[C@@H]2c3cccc4[nH]cc(c34)C[C@H]21 [Dihydroergotamine tartrate] | 101 | 
45 | CN1C[C@H](C(=O)N[C@]2(C)O[C@@]3(O)[C@@H]4CCCN4C(=O)[C@H](Cc4ccccc4)N3C2=O)C[C@@H]2c3cccc4[nH]cc(c34)C[C@H]21 [Dihydroergotamine] | 103 | 
46 | CN1C[C@H](C(=O)N[C@]2(C)O[C@@]3(O)[C@@H]4CCCN4C(=O)[C@H](Cc4ccccc4)N3C2=O)C[C@@H]2c3cccc4[nH]cc(c34)C[C@H]21 [Dihydroergotamine mesylate] |  | 100
47 | CN1C[C@H](C(=O)N[C@]2(C)O[C@@]3(O)[C@@H]4CCCN4C(=O)[C@H](Cc4ccccc4)N3C2=O)C[C@@H]2c3cccc4[nH]cc(c34)C[C@H]21 [Dihydroergotamine methanesulfonate] | 103 | 
48 | O=C1NCN(c2ccccc2)C12CCN(CC1COc3ccccc3O1)CC2 (centres undefined) [Spiroxatrine] | 110 ± 1.6 | 
49 | C[N+]1(C)[C@@H]2CC[C@H]1C[C@@H](OC(=O)C(CO)c1ccccc1)C2 (some centres undefined) [Atropine methyl bromide] | 102 | 
50 | C[N+]1(C)[C@@H]2CC[C@H]1C[C@@H](OC(=O)C(CO)c1ccccc1)C2 (some centres undefined) [Atropine methyl nitrate] | 107 | 
51 | C[N+]1(C)[C@@H]2CC[C@H]1C[C@@H](OC(=O)C(CO)c1ccccc1)C2 (some centres undefined) [Methylatropine nitrate] | 90.5 | 
52 | C[N+]1(C)[C@@H]2CC[C@H]1C[C@@H](OC(=O)C(CO)c1ccccc1)C2 (some centres undefined) | 109 | 

Individual results from the results shown:
For cell viability (compound concentration: 3 uM) [%], C[N+]1(C)[C@@H]2CC[C@H]1C[C@@H](OC(=O)C(CO)c1ccccc1)C2 (some centres undefined) [Methylatropine nitrate] reads 90.5
For cell viability (compound concentration: 3 uM) [%], Oc1noc2c1CCNC2 reads 110
For cell viability (compound concentration: 3 uM) [%], C[N+](C)(C)CCCCCCCCCC[N+](C)(C)C [Decamethonium bromide] reads 102
For cell viability (compound concentration: 3 uM) [%], CC(CCc1ccccc1)NC(C)C(O)c1ccc(O)cc1 (centres undefined) reads 103
